For four sequences, functional effect results are on record in patent publication US20220289795, “EFFICIENT METHOD FOR PREPARING PPR PROTEIN AND USE OF THE SAME” (EditForce, Inc., published 2022).

Assay in all cases: activity in cells
Data set [1] relates to T1, v1_PPRsp2 (Artificial Sequence).
T1 sequence: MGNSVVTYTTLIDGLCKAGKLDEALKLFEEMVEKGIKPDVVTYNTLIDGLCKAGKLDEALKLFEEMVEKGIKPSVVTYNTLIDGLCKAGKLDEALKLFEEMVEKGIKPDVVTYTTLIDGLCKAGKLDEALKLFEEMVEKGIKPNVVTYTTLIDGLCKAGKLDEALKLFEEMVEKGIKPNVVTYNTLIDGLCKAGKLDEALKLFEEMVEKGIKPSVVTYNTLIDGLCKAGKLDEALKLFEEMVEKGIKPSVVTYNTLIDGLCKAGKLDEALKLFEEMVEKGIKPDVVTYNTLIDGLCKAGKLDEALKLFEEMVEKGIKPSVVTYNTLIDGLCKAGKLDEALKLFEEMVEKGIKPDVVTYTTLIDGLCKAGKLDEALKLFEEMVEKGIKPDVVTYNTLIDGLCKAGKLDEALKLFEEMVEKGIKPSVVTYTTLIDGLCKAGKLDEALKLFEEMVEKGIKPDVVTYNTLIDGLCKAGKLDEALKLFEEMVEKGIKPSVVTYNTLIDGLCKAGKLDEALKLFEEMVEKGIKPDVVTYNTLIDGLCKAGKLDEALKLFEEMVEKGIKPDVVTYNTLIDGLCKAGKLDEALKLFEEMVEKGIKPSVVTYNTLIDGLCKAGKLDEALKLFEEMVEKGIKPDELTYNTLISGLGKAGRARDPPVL
To be noted: splicing ratio of RG6 changed, HEK293T; protein in cells; protein details: N-term NLS, C-term FLAG; only the site is given.

For data set [2], the system named is T2, v2_PPRsp2 (Artificial Sequence).
T2 sequence: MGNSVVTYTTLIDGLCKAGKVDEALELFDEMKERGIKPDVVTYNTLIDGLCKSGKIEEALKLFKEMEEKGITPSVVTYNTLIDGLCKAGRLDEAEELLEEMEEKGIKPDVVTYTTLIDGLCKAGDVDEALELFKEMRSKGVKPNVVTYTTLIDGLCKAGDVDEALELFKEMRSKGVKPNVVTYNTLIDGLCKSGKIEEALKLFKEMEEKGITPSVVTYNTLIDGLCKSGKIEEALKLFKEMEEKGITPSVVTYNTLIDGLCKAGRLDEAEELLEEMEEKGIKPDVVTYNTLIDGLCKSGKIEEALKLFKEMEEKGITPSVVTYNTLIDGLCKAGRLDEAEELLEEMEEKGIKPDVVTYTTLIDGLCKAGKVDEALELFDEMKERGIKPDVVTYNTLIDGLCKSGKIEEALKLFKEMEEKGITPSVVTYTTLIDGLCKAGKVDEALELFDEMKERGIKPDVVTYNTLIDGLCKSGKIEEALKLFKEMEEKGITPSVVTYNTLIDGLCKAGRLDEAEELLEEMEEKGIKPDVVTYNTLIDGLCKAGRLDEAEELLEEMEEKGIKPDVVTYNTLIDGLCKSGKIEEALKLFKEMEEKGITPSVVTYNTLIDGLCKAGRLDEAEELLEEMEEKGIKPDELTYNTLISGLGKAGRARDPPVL
Particulars: larger splicing change than v1, HEK293T; protein in cells; protein details: N-term NLS, C-term FLAG; only the site is given.

The test system of data set [3] is T3, v1_PPRsp5 (Artificial Sequence).
T3 sequence: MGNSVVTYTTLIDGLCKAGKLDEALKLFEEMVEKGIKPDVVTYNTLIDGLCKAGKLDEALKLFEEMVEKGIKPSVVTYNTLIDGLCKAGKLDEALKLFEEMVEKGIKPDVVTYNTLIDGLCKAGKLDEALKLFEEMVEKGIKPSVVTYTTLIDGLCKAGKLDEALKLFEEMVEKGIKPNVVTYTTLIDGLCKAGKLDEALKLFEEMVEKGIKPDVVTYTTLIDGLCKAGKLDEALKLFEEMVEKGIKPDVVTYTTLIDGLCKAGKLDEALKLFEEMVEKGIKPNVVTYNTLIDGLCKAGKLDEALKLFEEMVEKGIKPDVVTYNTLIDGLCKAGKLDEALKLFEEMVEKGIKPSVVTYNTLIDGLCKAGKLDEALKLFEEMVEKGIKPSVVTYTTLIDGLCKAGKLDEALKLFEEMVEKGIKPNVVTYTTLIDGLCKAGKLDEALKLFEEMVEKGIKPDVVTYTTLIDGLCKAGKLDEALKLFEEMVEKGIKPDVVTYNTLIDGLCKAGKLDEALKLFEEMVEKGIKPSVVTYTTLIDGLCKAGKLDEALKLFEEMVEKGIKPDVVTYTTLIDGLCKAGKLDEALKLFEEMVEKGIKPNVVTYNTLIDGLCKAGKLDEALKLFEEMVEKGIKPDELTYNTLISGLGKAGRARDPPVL
Particulars: splicing ratio of RG6 changed, HEK293T; protein in cells; protein details: N-term NLS, C-term FLAG; only the site is given.

Data set [4] relates to T4, v2_PPRsp5 (Artificial Sequence).
T4 sequence: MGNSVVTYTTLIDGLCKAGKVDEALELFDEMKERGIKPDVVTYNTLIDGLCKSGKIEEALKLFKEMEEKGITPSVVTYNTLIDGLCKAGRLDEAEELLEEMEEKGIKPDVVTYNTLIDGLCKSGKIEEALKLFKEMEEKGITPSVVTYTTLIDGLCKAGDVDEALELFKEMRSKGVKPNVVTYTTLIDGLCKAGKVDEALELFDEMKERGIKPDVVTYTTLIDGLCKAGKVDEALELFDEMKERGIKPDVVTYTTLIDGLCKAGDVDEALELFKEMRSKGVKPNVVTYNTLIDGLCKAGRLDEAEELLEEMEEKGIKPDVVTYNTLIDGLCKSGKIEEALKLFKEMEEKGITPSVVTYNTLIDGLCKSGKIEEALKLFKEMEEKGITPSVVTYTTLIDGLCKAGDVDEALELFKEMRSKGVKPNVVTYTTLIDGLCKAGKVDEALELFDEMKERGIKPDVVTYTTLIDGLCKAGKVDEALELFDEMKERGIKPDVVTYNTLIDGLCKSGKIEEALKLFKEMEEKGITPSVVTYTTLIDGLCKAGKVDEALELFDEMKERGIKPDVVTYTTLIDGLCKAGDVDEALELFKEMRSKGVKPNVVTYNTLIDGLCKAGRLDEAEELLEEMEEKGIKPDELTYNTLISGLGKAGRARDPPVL
To be noted: larger splicing change than v1, HEK293T; protein in cells; protein details: N-term NLS, C-term FLAG; only the site is given.

Data set [5] deals with T5, v1_PPRsp3 (Artificial Sequence).
T5 sequence: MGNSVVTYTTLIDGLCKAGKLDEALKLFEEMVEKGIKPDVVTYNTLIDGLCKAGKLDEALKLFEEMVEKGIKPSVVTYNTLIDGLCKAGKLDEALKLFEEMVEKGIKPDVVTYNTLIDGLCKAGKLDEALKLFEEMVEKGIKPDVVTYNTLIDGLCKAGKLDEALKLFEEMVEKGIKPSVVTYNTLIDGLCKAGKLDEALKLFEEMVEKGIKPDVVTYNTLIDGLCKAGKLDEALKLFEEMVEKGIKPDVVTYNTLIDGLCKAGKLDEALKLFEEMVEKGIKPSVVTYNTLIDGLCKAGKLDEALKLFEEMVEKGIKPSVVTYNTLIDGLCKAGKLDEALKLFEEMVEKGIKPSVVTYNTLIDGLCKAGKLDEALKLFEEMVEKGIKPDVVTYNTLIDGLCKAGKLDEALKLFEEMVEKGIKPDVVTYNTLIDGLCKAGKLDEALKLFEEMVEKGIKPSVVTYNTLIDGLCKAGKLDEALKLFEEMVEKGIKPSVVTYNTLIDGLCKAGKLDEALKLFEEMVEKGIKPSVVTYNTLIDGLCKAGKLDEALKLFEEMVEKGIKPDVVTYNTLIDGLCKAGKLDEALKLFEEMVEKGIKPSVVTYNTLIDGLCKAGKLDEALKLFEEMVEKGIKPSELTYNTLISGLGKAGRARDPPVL
Particulars: splicing ratio of RG6 changed, HEK293T; protein in cells; protein details: N-term NLS, C-term FLAG; only the site is given.

The subject of data set [6] is T6, v2_PPRsp3 (Artificial Sequence).
T6 sequence: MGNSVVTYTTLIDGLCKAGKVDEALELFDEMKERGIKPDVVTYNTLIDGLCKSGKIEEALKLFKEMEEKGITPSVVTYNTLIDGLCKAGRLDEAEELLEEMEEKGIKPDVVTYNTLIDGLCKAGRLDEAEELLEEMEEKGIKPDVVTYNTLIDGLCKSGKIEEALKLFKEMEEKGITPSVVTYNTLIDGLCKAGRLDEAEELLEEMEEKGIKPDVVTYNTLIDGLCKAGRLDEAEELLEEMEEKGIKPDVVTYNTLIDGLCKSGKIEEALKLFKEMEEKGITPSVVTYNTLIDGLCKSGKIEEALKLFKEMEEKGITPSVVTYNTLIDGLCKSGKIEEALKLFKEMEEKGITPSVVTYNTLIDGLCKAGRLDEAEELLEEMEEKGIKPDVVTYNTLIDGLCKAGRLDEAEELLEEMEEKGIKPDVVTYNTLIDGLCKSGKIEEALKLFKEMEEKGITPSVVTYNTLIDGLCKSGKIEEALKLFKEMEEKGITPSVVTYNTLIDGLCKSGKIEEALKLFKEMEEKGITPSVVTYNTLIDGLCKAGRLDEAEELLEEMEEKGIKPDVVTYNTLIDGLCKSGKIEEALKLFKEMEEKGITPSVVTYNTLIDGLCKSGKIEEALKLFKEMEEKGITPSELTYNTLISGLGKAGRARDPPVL
To be noted: larger splicing change than v1, HEK293T; protein in cells; protein details: N-term NLS, C-term FLAG; only the site is given.

Data set [7] concerns T7, v1_PPRsp1 (Artificial Sequence).
T7 sequence: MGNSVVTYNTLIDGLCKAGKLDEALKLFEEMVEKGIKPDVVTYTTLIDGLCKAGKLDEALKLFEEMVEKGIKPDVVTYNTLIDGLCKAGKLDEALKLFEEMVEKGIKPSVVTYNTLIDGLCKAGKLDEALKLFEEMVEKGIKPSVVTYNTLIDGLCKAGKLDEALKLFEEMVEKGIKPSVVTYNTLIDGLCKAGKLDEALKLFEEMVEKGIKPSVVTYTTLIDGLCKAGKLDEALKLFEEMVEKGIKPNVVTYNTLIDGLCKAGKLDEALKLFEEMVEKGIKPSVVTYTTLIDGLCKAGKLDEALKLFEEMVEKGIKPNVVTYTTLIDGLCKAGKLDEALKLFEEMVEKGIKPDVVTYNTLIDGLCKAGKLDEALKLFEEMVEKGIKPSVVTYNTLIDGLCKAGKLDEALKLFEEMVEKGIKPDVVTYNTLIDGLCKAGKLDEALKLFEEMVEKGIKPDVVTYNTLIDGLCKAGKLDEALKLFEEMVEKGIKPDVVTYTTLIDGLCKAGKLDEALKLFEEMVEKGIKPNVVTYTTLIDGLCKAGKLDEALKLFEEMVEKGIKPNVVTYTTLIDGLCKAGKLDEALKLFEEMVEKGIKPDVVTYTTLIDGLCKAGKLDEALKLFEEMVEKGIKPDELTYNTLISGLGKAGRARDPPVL
To be noted: splicing ratio of RG6 changed from 0.48, HEK293T; values in figure; protein in cells; protein details: N-term NLS, C-term FLAG; only the site is given.

The subject of data set [8] is T8, v2_PPRsp1 (Artificial Sequence).
T8 sequence: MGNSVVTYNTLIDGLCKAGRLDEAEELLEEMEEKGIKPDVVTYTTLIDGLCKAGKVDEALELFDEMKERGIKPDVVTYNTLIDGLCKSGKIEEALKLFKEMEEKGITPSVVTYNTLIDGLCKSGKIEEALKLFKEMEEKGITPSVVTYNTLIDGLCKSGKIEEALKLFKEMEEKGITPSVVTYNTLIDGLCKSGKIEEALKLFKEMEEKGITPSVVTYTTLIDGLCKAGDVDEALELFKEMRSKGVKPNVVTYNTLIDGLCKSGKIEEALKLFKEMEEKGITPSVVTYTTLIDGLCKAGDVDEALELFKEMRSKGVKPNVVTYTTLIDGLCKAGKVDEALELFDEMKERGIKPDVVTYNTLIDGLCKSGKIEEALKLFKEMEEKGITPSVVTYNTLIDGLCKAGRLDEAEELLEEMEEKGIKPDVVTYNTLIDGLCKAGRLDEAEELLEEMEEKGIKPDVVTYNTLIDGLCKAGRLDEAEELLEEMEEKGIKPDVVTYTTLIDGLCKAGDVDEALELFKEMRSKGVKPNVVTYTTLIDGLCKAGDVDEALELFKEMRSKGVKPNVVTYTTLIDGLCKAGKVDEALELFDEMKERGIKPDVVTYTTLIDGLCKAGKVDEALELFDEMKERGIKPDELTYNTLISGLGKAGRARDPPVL
To be noted: larger splicing change than v1, HEK293T; protein in cells; protein details: N-term NLS, C-term FLAG; only the site is given.

Tags and fusion partners may be left off the protein sequences shown.

As to GCUAACCUCUGCGCUUCU [T78 (RG6 reporter)], the functional effect entry in data set [1] and in data set [2] was “active” throughout.
Consider GCUCAGGAUCCAGGCGAU [T81 (RG6 reporter)], for which the functional effect result in data set [3] and in data set [4] was “active” throughout.
Consider GCUUCUUCCCUUCCCUCC [T79 (RG6 reporter)], for which the functional effect result in data set [5] and in data set [6] was “active” each time.
As for UGCCCCACAGCUUUAAGG [T77 (RG6 reporter)], the functional effect result in data set [7] and in data set [8] was “active” each time.
